Measured values: article PMC7862700
Only a part is listed here, and it is no random draw. At the low end of the ranking the order means little.

Legend:
Assay in all cases: DAPPL (digital affinity profiling via proximity ligation, sequencing)
Conditions in all cases: 10 mM Tris-HCl pH 7.5, 50 mM NaCl, 1 mM DTT, 4% glycerol, room temperature, 30 min; GST-TFs on glutathione beads, 16-mer random dsDNA library, 0.1% …; high values mean tight binding; double strand, one strand shown; scale: fold enrichment (6-mer frequency, TF over GST control)
ELK1 = target: T1, ELK1 (UniProt P19419)
T1 sequence: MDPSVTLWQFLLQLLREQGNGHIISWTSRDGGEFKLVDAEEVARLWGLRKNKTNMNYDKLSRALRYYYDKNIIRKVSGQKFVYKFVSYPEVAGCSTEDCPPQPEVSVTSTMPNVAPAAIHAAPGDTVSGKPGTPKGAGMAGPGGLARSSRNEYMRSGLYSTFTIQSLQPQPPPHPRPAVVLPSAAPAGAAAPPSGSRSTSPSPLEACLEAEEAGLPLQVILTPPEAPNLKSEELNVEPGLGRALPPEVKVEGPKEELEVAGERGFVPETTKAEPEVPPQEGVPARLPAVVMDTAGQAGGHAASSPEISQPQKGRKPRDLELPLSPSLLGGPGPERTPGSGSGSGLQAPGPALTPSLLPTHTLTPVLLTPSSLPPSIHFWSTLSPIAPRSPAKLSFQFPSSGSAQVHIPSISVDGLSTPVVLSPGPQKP

ELK3 = target: T2, ELK3 (UniProt P41970)
T2 sequence: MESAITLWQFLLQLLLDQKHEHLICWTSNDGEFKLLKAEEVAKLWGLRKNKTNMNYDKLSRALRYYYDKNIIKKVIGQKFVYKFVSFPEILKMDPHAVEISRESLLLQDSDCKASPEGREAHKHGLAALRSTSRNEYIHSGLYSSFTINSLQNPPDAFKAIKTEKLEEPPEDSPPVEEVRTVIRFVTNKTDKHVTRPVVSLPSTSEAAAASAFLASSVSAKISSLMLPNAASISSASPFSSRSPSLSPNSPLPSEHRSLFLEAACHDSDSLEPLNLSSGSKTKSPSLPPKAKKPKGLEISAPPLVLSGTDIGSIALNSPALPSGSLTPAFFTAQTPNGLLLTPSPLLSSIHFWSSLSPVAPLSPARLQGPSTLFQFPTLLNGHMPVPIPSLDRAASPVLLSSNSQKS

SPIC = target: T3, SPIC (UniProt Q8N5J4)
T3 sequence: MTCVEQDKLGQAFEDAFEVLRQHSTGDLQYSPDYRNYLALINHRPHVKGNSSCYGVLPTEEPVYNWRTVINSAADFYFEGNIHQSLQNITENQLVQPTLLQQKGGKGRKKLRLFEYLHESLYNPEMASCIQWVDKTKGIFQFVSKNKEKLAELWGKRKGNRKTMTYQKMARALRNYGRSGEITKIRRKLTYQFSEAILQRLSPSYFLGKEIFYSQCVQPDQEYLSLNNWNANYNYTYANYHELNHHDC

ETS2 = target: T4, ETS2 (UniProt P15036)
T4 sequence: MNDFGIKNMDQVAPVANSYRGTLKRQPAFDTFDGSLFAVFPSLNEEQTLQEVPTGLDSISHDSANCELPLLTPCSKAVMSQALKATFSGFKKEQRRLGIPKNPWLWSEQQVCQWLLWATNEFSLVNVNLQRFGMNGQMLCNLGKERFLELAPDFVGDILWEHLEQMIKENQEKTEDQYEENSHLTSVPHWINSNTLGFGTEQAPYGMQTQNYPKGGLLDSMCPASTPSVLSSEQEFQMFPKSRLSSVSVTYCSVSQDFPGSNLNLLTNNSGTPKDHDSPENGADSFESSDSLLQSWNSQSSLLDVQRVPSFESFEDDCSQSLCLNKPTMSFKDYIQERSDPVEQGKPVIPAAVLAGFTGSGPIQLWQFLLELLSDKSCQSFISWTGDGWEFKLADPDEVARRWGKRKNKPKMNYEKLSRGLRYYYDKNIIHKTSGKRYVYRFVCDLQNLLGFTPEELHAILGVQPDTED

ETV3 = target: T5, ETV3 (UniProt P41162-2)
T5 sequence: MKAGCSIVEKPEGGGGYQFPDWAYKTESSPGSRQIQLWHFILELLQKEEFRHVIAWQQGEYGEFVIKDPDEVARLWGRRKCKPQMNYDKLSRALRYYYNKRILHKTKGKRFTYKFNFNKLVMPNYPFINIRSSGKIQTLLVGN

Sequence	binding signal (ELK1)	binding signal (ELK3)	binding signal (SPIC)	binding signal (ETS2)	binding signal (ETV3)
AGCTTG	0.88	0.925	0.986	0.886	0.976
CCACAG	0.986	0.903	0.941	0.934	0.951
TTGGAA	0.959	0.99	0.966	0.931	0.909
ACGTCA	0.957	0.941	0.946	0.976	0.823
CCGCGG	0.945	0.771	0.845	0.957	0.959
CATTAG	0.914	0.894	0.976	0.895	0.999
GATCAT	0.973	1.1	0.912	0.97	0.926
GCGCAC	0.925	0.939	0.861	0.911	0.838
CATGCG	0.982	0.947	1	1	1.03
ACCTAG	0.959	0.998	1.01	1.06	0.922
GTCTGG	0.907	0.892	0.881	0.779	0.846
GCATAC	0.977	1.05	0.974	0.954	0.976
TACGGG	0.892	0.863	0.993	0.891	0.907
GATTAG	0.911	0.823	0.853	0.871	0.833
GAAGGT	0.832	0.796	0.722	0.863	0.868
GGATTA	0.833	0.866	0.852	0.847	0.763
GCCTGA	1.13	0.9	0.867	1.02	0.96
CTAGAC	0.989	0.929	0.95	0.942	0.999
AGCGAA	0.898	0.871	0.859	0.93	0.986
CGAGAA	0.924	0.977	0.909	0.902	0.787
GATCTG	0.922	0.881	0.95	0.984	0.919
GCAAGC	0.905	0.922	0.729	0.934	0.903
AGGGTT	0.951	0.849	0.99	0.959	0.986
CAGAAG	0.68	0.783	0.719	0.799	0.79
GGCCTG	0.877	0.996	0.974	0.898	0.915

No new results follow: entries from further up.
Sequence	binding signal (ELK1)	binding signal (ELK3)	binding signal (SPIC)	binding signal (ETS2)	binding signal (ETV3)
ACGTCA	0.957	0.941	0.946	0.976	0.823
CCGCGG	0.945	0.771	0.845	0.957	0.959
CATTAG	0.914	0.894	0.976	0.895	0.999
GATCAT	0.973	1.1	0.912	0.97	0.926
GCGCAC	0.925	0.939	0.861	0.911	0.838
CATGCG	0.982	0.947	1	1	1.03
ACCTAG	0.959	0.998	1.01	1.06	0.922
